Data from PubChem BioAssay AID2685 (National Center for Advancing Translational Sciences (NCATS), 2010).
The list shows a part of the results. Further columns of the screen follow, without active or inactive calls. Most of these compounds were active or inconclusive in the main read-out, so they are no random draw. The note in brackets gives the kind of curve behind each potency; many fits are weak.

Test: qHTS Assay for Lipid Storage Modulators in Drosophila S3 Cells;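 on cell number change: cells counted by Cell Tracker Red CMTPX staining in the red channel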
Details: BODIPY lipid droplet fluorescence, 18-24 h; for cell number change: measured here: cell count max response, cells fed with added oleic acid
Summary of the method: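 Drosophila S3 cells loaded with oleic acid (400 uM, as added) and compounds at several concentrations; lipid droplets imaged by 488-nm laser-scanning cytometry, 500–530 nm intensity and object ratio to cell channel. Percent activity normalized to 20 uM Triacsin C.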

[1] = measured here: cell number channel AC50, cells fed with added oleic acid
[2] = measured here: lipid fluorescence (Fed channel) AC50, cells fed with added oleic acid

SMILES | cell number change [%] | AC50 [1] | AC50 [2]
O=C(Nc1ccccc1Oc1ccccc1)c1cccc([N+](=O)[O-])c1 | 16.5 | 0.103 µM [rising, full curve, poor fit] | –
O=C(NC1CCCCCC1)c1cc2n(n1)C(C(F)(F)F)CC(c1ccco1)N2 (stereo unspecified) | -30 | 5.8 µM [falling, full curve, poor fit] | –
c1ccc(N2CCN(C3CC4CCC3C4)CC2)cc1 (stereo unspecified) | -25.4 | – | –
CCn1c(COc2cccc(C)c2)nnc1SCC(=O)CC(=O)Nc1ccccc1OC | -0.619 | – | 0.366 µM [rising, full curve, poor fit]
O=C(CSc1cccc[n+]1[O-])NCC1CCCCC1 | 21.5 | 1.84 µM [rising, partial curve, poor fit] | 3.26 µM [rising, single point]
COc1ccc(OCC(=O)OC2CCN(C)CC2)cc1 | 5.32 | – | –
COc1ccc(NS(=O)(=O)c2ccc(OC)c3ccccc23)cn1 | -21.5 | – | 16.4 µM [falling, single point]
O=C(CCl)Nc1cccc(-c2cnc3ccccc3n2)c1 | -84 | 29.1 µM [falling, single point] | –
Nn1c(SCc2ccc([N+](=O)[O-])cc2)nc2ccccc2c1=O | -21.9 | 2.31 µM [falling, full curve, poor fit] | 4.11 µM [falling, full curve, poor fit]
CC(C)COc1ccc(CNC(=S)NCc2ccccc2)cc1 | -17.4 | 2.91 µM [rising, partial curve] | 6.51 µM [rising, single point]
Nc1c(C(=O)NCc2ccc3c(c2)OCO3)nnn1Cc1cccc(F)c1 | 58.2 | 1.84 µM [rising, partial curve, poor fit] | 0.58 µM [rising, full curve]
CN1C(=O)Cc2cc(S(=O)(=O)N3CCN(c4ccccc4F)CC3)ccc21 | 21.4 | – | 4.11 µM [falling, single point]
COc1ccccc1N1CC(C(=O)Nc2nnc(SCC(=O)N3CCOCC3)s2)CC1=O (stereo unspecified) | 17.1 | – | –
CCOC(=O)N1CCN(c2c(N3CCc4ccccc4C3)c(=O)c2=O)CC1 | – | – | 2.06 µM [rising, partial curve]
CC(C)Cn1c(-c2ccco2)nc2c(c(=O)c3ccccc3n2C)c1=O | -21.8 | 6.51 µM [rising, single point] | 0.461 µM [rising, full curve]
CCOCCn1c(CN2CCN(CCO)CC2)nc2c1c(=O)n(C)c(=O)n2C | 14.4 | – | 29.1 µM [rising, single point]
COc1ccccc1CNC(=O)COC(=O)Cc1ccc(Cl)cc1 | -10.5 | 0.103 µM [falling, full curve, poor fit] | 0.13 µM [falling, full curve, poor fit]
CCc1sc(C(=O)Nc2nccs2)cc1C | 12.6 | – | –
COC(=O)c1ccc(C(=O)Nc2nnc(-c3cccnc3)o2)cc1 | 8.27 | – | 0.82 µM [rising, full curve, poor fit]

SMILES | cell number change [%] | AC50 [1] | AC50 [2]
CC(C)(C)OC(=O)NCCCCCc1nnc(SCc2c(F)cccc2Cl)o1 | 17.7 | 0.103 µM [rising, full curve, poor fit] | –
O=C(O)Cc1ccc(N=Nc2c(O)c(C(=O)O)cc3ccccc23)cc1 | 4.1 | 0.164 µM [falling, single point] | –
O=C(NCc1ccco1)c1ccc2c(c1)C(=O)c1ccccc1-2 | -43.9 | 32.6 µM [falling, single point] | 0.517 µM [rising, single point]
Cc1noc(C)c1CSCC(=O)Nc1nc2ccc(F)cc2s1 | -7.74 | – | –
COc1ccc(NC(=O)NNC(=O)c2cc3ccccc3cc2O)cc1 | 1.74 | – | –
Cn1c(=O)[nH]c(=O)c2c1nc(N1CCCCCC1)n2CCOc1ccccc1 | 31.4 | 32.6 µM [rising, single point] | –
Sc1oc(-c2ccccc2)cc1C=Nc1ccccc1 | -33.8 | 8.2 µM [falling, partial curve] | 29.1 µM [falling, partial curve]
COc1cc(CNC(=O)c2ccc(Cn3nc(C)c(Cl)c3C)o2)cc(OC)c1 | -13 | – | 6.51 µM [rising, single point]
Cn1c(=O)n(CCO)c(=O)c2c1nc(Br)n2Cc1ccccc1 | 14 | 3.66 µM [rising, partial curve, poor fit] | 0.651 µM [falling, single point]
O=Cc1ccc(-c2ccc(Cl)cc2Cl)[nH]1 | -8.97 | – | 0.0651 µM [falling, full curve, poor fit]
Cc1cc(NC(=O)CSc2nccn2-c2cccc(C)c2C)no1 | – | – | 1.3 µM [falling, partial curve, poor fit]
Cc1ccc(S(=O)(=O)N2CCN(C(=O)COC(=O)c3ccccc3Cl)CC2)c(C)c1 | 15.7 | 3.66 µM [falling, single point] | 0.731 µM [rising, partial curve, poor fit]
Cc1ccccc1N1CCN(C(=O)NCc2cccc(Cl)c2)CC1 | 7.98 | – | 0.206 µM [falling, single point]
CCN(CC)S(=O)(=O)c1ccc(Oc2ccccc2)c(N)c1 | 34.8 | – | –
COc1ccccc1-c1cc(C(=O)N2CCN(S(=O)(=O)c3ccc(C)cc3)CC2)[nH]n1 | -18.4 | – | –
COc1ccc(OC)c(CN2CCC(Cc3ccccc3)CC2)c1 | -15 | – | 29.1 µM [falling, single point]
CC1(C)CC(NC(=O)Cc2ccccc2[N+](=O)[O-])CC(C)(C)N1 | -8.24 | – | 29.1 µM [falling, single point]
Cn1c2c(c(=O)n(C)c1=O)CN(CCN1CCNCC1)CN2 | -31.1 | – | 4.11 µM [falling, single point]
N#CCCN(Cc1cccnc1)C(=O)c1ccc(S(=O)(=O)N2CCOCC2)cc1 | 8.44 | – | 32.6 µM [rising, single point]

As entered above.
cell number change [%], COc1ccc(NC(=O)NNC(=O)c2cc3ccccc3cc2O)cc1 is entered as 1.74
AC50 [2], Cn1c(=O)n(CCO)c(=O)c2c1nc(Br)n2Cc1ccccc1 is entered as 0.651 µM [falling, single point]
